Results: patent publication US9097721B2, “Compositions comprising engineered phosphothreonine affinity reagents, methods of making, and methods of use” (The Board of Trustees of the University of Illinois, priority 2012, dated 2015)
Substitutions are numbered along the chain they refer to. Numbers in names are those of the source. Some compounds share one wording; it may come from a single statement.

B1: WT: N-terminal FHA1 domain of S. cerevisiae Rad53 protein kinase, residues 1-170 (SEQ ID NO:7) (protein, listed as Saccharomyces cerevisiae)
chain: MENITQPTQQSTQATQRFLIEKFSQEQIGENIVCRVICTTGQIPIRDLSADISQVLKEKRSIKKVWTFGRNPACDYHLGNISRLSNKHFQILLGEDGNLLLNDISTNGTWLNGQKVEKNSNQLLSQGDEITVGVGVESDILSLVIFINDKFKQCLEQNKVDRIRSNLKNT
B2: 3C-3S: FHA1 domain variant with three cysteines mutated to serine (C34S, C38S, C154S) (protein)
chain: B1 chain with C34S, C38S, C154S
modifications: left off: a dimerising Fc or GST; large carriers; small tags and cut ends
B3: 4C-4S: FHA1 variant with all four cysteines mutated to serines (protein)
chain: B1 chain with C34S, C38S, C74S, C154S
modifications: left off: a dimerising Fc or GST; large carriers; small tags and cut ends
notes: FHA1 variant with all four cysteines mutated to serines

What follows are molecules tested on anti-FHA scFv (assay: Phage ELISA with antibody fragment recognising only folded FHA1 domain). Settings: phage-displayed, normalized to Flag epitope.

Molecule | recognition by anti-FHA scFv (conformational epitope)
B1 | Neither the phage-displayed WT FHA1 domain nor the 3C-3S and 4C-4S variants were recognized
B2 | Neither the phage-displayed WT FHA1 domain nor the 3C-3S and 4C-4S variants were recognized
B3 | Neither the phage-displayed WT FHA1 domain nor the 3C-3S and 4C-4S variants were recognized
